Assay results reported in the supplement of paper PMC12823440, “Inhibitors supercharge kinase turnover through native proteolytic circuits” (Nature, 2025).
Counter-ions that a name gives are not always drawn. Some of the results follow. Hit calls seldom repeat between salt and free forms of one compound.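 Kinases were expressed as nanoluciferase fusions in K562 cells and luminescence was read every 4 h between 2 and 18 h as percent of control, DMSO set to 100% and a positive control to 0%. A time point counts as decreased when the signal drops significantly (2 sigma). The hit call is the authors' own, does not follow from the count of time points alone, and its rule is not shown.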

By UniProt entry, the sequences of proteins in these tests, tags left out. Where a name states a change or a piece, a line headed by the entry shows the natural chain unless it says otherwise.
UniProt P00519, whole entry: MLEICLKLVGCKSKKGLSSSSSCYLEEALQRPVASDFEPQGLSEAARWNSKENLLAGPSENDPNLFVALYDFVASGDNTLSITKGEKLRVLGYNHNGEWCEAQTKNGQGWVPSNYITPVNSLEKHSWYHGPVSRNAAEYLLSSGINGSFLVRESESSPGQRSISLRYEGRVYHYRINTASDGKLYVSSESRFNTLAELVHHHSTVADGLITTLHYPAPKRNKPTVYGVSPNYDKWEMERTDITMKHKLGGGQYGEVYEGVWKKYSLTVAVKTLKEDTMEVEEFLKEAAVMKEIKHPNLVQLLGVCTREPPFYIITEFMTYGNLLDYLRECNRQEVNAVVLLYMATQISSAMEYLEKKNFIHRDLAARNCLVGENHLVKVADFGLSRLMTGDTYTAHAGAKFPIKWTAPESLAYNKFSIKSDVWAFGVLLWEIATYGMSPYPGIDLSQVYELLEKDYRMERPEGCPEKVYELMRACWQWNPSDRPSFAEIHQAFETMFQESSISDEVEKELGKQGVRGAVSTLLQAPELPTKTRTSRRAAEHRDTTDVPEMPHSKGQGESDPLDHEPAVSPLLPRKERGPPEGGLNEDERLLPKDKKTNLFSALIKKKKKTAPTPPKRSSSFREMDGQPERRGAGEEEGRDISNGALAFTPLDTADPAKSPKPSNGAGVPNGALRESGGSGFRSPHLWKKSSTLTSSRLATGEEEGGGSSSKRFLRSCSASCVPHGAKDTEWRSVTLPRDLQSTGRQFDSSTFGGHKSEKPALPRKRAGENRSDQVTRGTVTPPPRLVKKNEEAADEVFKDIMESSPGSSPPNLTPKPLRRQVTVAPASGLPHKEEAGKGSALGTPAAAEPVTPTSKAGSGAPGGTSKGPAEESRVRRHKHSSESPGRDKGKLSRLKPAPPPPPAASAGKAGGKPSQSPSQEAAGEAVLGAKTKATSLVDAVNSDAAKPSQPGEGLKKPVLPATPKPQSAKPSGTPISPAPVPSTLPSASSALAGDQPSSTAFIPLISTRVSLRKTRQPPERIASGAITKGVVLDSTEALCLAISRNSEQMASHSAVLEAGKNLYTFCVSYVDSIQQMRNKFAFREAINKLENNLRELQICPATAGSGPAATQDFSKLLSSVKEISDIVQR
UniProt Q9UM73: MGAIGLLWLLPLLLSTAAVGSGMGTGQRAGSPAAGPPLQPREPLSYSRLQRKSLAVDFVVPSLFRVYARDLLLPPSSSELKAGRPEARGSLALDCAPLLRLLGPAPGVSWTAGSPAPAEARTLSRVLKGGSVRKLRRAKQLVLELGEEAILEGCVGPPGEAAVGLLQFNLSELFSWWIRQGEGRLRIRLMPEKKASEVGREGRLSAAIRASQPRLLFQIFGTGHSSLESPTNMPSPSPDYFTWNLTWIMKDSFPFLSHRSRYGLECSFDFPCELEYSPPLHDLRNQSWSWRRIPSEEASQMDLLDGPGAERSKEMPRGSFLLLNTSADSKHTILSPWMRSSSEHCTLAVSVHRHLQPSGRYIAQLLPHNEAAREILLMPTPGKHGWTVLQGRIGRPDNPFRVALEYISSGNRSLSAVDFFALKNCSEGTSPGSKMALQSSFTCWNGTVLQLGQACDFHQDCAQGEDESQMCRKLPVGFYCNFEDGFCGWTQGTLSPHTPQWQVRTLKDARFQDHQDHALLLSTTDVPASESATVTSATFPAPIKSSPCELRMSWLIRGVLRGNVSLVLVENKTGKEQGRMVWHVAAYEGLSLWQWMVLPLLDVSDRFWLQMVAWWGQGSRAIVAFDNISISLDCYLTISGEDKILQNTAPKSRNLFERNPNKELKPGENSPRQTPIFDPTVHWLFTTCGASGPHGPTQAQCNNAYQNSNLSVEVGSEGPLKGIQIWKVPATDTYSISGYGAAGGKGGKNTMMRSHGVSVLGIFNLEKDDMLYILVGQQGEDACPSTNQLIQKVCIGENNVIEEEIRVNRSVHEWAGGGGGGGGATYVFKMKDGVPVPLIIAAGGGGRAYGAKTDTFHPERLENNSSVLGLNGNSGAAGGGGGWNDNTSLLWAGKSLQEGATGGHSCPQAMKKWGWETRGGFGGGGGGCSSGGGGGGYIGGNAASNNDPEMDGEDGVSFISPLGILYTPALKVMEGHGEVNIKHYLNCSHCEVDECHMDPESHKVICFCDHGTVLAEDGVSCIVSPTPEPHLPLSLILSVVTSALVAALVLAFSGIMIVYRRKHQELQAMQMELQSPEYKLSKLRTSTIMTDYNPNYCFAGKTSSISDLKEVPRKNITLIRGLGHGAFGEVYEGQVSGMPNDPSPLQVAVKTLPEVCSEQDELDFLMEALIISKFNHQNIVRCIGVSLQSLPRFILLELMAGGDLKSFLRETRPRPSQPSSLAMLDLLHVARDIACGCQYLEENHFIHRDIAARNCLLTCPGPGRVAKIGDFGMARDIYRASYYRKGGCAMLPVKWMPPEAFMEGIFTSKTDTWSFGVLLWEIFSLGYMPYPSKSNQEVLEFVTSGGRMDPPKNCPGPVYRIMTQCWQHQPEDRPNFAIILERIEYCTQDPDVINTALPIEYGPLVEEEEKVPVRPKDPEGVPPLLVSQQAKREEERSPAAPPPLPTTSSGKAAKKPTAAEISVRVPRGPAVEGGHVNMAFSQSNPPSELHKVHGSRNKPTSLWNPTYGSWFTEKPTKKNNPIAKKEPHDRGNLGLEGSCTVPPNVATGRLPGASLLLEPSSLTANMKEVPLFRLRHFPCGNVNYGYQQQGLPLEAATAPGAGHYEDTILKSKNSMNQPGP
UniProt P10398: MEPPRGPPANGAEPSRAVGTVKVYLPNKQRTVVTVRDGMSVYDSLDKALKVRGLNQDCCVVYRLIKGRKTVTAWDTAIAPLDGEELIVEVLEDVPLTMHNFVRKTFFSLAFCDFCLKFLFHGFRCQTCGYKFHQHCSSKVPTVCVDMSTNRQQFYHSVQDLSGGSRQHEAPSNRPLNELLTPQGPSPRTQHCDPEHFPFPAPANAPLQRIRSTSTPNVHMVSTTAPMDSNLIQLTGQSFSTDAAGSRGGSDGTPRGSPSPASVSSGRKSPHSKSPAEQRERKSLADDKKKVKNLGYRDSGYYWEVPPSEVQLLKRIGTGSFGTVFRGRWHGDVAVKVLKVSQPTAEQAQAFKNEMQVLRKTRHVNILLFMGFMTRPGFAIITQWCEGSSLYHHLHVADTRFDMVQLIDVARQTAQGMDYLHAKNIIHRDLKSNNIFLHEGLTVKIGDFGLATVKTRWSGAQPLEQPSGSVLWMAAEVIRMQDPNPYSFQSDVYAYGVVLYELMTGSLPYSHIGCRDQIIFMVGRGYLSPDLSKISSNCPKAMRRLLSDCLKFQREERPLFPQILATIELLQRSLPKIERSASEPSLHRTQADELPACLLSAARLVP
UniProt O14965: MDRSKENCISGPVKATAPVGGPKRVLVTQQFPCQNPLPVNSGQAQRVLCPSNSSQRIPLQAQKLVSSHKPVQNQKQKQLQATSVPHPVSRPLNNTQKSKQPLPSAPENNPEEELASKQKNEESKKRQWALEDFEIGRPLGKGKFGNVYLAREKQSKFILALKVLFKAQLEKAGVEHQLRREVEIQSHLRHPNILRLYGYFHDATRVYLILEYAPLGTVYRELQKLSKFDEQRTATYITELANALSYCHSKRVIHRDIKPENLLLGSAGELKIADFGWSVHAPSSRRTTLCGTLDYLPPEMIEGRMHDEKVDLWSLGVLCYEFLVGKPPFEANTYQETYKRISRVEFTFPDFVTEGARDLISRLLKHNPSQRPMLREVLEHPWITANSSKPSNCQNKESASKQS
UniProt Q96GD4, whole entry: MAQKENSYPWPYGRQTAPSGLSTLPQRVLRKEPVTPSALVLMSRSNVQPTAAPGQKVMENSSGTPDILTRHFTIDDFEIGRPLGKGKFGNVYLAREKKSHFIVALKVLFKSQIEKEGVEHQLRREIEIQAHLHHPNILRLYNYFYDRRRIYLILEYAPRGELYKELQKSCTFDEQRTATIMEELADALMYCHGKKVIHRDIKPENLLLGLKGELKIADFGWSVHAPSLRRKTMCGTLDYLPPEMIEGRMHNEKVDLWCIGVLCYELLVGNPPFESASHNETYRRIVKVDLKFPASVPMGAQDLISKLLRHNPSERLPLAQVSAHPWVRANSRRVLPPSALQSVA
UniProt Q9UQB9: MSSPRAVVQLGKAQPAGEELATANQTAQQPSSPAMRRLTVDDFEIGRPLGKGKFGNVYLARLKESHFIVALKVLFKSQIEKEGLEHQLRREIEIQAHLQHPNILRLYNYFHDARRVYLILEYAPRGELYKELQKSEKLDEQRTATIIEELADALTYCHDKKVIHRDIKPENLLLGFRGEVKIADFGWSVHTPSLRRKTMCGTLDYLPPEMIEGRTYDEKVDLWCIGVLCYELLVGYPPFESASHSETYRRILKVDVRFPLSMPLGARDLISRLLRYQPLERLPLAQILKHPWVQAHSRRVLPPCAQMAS
UniProt P51451: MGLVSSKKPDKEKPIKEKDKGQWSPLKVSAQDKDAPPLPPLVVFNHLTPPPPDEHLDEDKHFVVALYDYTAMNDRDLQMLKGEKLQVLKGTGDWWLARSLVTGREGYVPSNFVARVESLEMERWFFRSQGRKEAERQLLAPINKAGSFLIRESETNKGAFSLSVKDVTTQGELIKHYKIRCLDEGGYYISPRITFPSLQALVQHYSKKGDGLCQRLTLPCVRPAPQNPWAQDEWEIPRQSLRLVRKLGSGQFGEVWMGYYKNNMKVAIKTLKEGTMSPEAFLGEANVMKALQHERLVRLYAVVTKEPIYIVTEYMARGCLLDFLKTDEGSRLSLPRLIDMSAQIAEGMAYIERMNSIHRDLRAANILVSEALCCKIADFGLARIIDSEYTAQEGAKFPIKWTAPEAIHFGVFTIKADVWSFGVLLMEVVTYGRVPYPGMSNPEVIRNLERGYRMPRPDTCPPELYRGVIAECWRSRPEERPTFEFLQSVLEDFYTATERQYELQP
UniProt P51813: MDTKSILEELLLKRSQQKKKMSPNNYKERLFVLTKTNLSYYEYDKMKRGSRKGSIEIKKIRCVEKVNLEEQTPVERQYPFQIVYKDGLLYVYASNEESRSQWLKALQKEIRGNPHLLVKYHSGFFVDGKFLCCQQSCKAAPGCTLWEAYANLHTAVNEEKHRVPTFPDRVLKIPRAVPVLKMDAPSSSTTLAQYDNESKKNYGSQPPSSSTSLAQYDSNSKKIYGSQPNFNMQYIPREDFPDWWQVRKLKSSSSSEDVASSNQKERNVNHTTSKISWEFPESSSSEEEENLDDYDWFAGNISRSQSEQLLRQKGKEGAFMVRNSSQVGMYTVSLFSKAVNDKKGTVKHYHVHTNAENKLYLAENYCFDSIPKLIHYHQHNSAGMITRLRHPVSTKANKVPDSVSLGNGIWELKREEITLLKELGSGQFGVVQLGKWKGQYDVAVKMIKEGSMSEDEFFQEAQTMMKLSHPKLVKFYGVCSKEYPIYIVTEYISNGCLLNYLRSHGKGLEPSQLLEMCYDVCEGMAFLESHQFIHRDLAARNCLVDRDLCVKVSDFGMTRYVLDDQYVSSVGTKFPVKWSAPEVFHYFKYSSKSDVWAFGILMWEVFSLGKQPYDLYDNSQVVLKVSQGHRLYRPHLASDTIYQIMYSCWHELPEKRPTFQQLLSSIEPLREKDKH
UniProt P15056, whole entry, looked up: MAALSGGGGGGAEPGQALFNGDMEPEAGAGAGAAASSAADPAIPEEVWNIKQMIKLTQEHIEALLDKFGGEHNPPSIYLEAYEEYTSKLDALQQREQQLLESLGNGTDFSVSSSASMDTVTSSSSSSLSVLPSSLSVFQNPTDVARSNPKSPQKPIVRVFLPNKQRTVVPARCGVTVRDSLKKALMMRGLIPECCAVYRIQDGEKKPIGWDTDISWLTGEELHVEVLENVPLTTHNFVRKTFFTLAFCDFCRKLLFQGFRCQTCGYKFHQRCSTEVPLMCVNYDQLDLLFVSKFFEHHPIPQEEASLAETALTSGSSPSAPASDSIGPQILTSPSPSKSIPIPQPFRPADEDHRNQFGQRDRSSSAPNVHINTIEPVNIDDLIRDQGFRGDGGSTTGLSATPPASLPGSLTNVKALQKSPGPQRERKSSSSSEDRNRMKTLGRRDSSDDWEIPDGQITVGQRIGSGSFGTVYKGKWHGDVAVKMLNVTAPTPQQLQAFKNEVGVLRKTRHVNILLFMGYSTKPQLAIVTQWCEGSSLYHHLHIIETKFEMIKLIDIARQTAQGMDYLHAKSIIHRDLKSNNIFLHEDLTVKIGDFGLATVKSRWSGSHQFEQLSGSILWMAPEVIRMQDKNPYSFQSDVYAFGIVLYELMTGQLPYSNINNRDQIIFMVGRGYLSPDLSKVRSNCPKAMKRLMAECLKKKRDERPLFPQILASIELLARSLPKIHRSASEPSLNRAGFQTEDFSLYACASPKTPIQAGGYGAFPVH

How the values were obtained:
Assay in all cases: kinase-Nluc reporter destabilization hit call (1 = scored as downregulated) (binary); higher = compound decreases kinase abundance
Settings in all cases: K562; 2-18 h
[1] = molecular target: ABL1 (UniProt P00519)
[2] = molecular target: AKT1 (UniProt P31749)
[3] = molecular target: ALK (UniProt Q9UM73)
[4] = molecular target: ARAF (UniProt P10398)
[5] = molecular target: AURKA (UniProt O14965)
[6] = molecular target: AURKB (UniProt Q96GD4)
[7] = molecular target: AURKC (UniProt Q9UQB9)
[8] = molecular target: BLK (UniProt P51451)
[9] = molecular target: BMX (UniProt P51813)
[10] = molecular target: BRAF (UniProt P15056)

Measured: kinase-Nluc reporter destabilization hit call

O=C1Cc2c([nH]c3ccc(Br)cc23)-c2ncccc2N1 [1-Azakenpaullone] (10 µM)
inactive: [1] 0 | [2] 0 | [3] 0 | [4] 0 | [5] 0 | [6] 0 | [7] 0 | [8] 0 | [9] 0 | [10] 0

CN1CCN(C(=O)c2ccc(-c3ccc4c(C=O)c(O)ccc4c3)s2)CC1 (2.5 µM)
inactive: [1] 0 | [2] 0 | [3] 0 | [4] 0 | [5] 0 | [6] 0 | [7] 0 | [8] 0 | [9] 0 | [10] 0

Cc1cccc(Cn2nc(C3CC3)c3c(NC(=O)c4cnc5cc(OCCN6CCN(C)CC6)ccn45)cccc32)n1 (10 µM)
inactive: [1] 0 | [2] 0 | [3] 0 | [4] 0 | [5] 0 | [6] 0 | [7] 0 | [8] 0 | [9] 0 | [10] 0

CC[C@H](CO)Nc1nc(NCc2ccccc2)c2ncn(C(C)C)c2n1 [Seliciclib] (10 µM)
inactive: [1] 0 | [2] 0 | [3] 0 | [4] 0 | [5] 0 | [6] 0 | [7] 0 | [8] 0 | [9] 0 | [10] 0

COc1cc(F)cc([C@@H](CO)NC(=O)[C@@H](C)N2Cc3ccc(-c4nc(NC5CCOCC5)ncc4Cl)cc3C2=O)c1 [ERK1/2 inhibitor 2] (10 µM)
inactive: [1] 0 | [2] 0 | [3] 0 | [4] 0 | [5] 0 | [6] 0 | [7] 0 | [8] 0 | [9] 0 | [10] 0

C=CC(=O)N1CCN(CCCn2c(=O)c(-c3c(Cl)c(OC)cc(OC)c3Cl)cc3cnc(NC)nc32)CC1 (10 µM)
inactive: [1] 0 | [2] 0 | [3] 0 | [4] 0 | [5] 0 | [6] 0 | [7] 0 | [8] 0 | [9] 0 | [10] 0

O=S(=O)(NCCNC/C=C/c1ccc(Br)cc1)c1cccc2cnccc12 [H-89 (dihydrochloride)] (10 µM)
inactive: [1] 0 | [2] 0 | [3] 0 | [4] 0 | [5] 0 | [6] 0 | [7] 0 | [8] 0 | [9] 0 | [10] 0
